Measurements published in patent publication US20180362632A1.
No constants are given. Whether binding was seen depends on the method and setting. Binding can be weak; no strength is given.

Target: recombinant rhesus GM-CSF protein (rhesus)
Assay: ELISA, plate-coated rhesus GM-CSF (FIG. 11)

Binder | binding
Hu23F4-13 (antibody, V domains shown) VH: EVQLVQSGAEVKKPGATVKISCKVSGYTFTSHYLHWVQQAPGKGLEWIGWIFPGDDKTKYNEKFKGRATLTSDTSTDTAYMELSSLRSEDTAVYYCARGTKYLNWNFDVWGQGTTVTVSS VL: DIQLTQSPSFLSASVGDRVTITCKANQNVGTTLAWYQQKPGKAPKLLIYSASYRYSGVPSRFSGSGSGTEFTLTISSLQPEDFATYYCHQYTTYPLTFGGGTKVEIK | binds
Hu23F4-27 (antibody, V domains shown) VH: EVQLVQSGAEVKKPGASVKVSCKASGYTFTSHYLHWVRQAPGQGLEWMGWIFPGDDKTKYNEKFKGRVTMTSDTSISTAYMELSRLRSDDTAVYYCARGTKYLNWNFDVWGQGTTVTVSS VL: DIQLTQSPSFLSASVGDRVTITCKANQNVGTTLAWYQQKPGKSPKALIYSASYRYSGVPDRFSGSGSGTDFTLTISSLQPEDFATYFCHQYTTYPLTFGGGTKVEIK | binds
Hu23F4-36 (antibody, V domains shown) VH: EVQLVQSGAEVKKPGASVKVSCKASDYTLTSHYLHWVRQAPGQGLEWIGWIFPGDDKTKYNEKFKGRATLTSDTSISTAYMELSRLRSDDTAVYYCARGTKYLNWNFDVWGQGTTVTVSS VL: DIQLTQSPSFLSASVGDRVTITCKANQNVGTTLAWYQQKPGKAPKLLIYSASYRYSGVPSRFSGSGSGTEFTLTISSLQPEDFATYYCHQYTTYPLTFGGGTKVEIK | binds

Other lines, results leading:

binding | Binder
binds | Hu50C5-17 (antibody, V domains shown) VH: EVQLVQSGAEVKKPGSSVKVSCKASGYIFSPYSIHWVRQAPGQGLEWIGYINPSTGYIEYNQHFKDRTTLTADKSTSTAYMELRSLRSEDTAVYYCARGGDYEGYFDYWGQGTTVTVSS VL: DIQMTQSPSSLSASVGDRVTITCRLNENIYSFLAWYQQKPGKAPKLLVYNAETLAEGVPSRFSGSGSGTDFTLTISSLQPEDFATYYCQQHYGTPYTFGGGTKVEIK
binds | Hu50C5-23 (antibody, V domains shown) VH: EVQLVQSGAEVKKPGSSVKVSCKASGYIFTPYSIHWVRQAPGQGLEWIGYINPSTGYIEYNQHFKDRTTLTADKSTSTAYMELRSLRSEDTAVYYCARGGDYEGYFDYWGQGTTVTVSS VL: DIQMTQSPSSLSASVGDRVTITCRLNENIYSFLAWYQQKPGKAPKLLVYNAETLAEDVPSRFSGSGSGTDFTLTISSLQPEDFATYYCQQHYGTPYTFGGGTKVEIK
